One assay has as its target human Keratin 8 (human) (UniProt P05787). The assay is described as follows: FRET or BRET; wide-field FRET on fixed, immunostained CHO-K1 cells transiently (co-)transfected with K8 or K18 with or without p62-H1 or p62-H2; AF488 (K8/18) to rhodamine (p62) on secondary antibodies; static FRET corrected for bleed-through and crosstalk and normalized to acceptor and donor fluorescence; spatial resolution approximately 20 nm. In general terms: BRET reads energy transfer from a luciferase to a nearby fluorophore.

Protein sequences, listed by entry. Tags and fused reporters are not part of them.
UniProt P05787: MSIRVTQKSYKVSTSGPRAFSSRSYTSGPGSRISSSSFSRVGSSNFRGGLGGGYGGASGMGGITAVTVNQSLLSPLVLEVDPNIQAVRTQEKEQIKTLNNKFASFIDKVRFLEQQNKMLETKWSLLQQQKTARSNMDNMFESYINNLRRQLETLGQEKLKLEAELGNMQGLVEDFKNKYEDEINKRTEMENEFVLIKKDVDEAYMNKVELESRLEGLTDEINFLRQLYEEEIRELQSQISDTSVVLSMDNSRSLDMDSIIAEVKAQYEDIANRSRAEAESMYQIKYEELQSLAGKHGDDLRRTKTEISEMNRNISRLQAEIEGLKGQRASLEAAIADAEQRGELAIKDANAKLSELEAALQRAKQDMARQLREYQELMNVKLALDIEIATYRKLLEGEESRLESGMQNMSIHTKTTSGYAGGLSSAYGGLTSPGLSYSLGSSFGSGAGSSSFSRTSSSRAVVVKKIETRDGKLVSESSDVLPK

A further assay addresses T1, human Keratin 18 (human) (UniProt P05783).
T1 sequence: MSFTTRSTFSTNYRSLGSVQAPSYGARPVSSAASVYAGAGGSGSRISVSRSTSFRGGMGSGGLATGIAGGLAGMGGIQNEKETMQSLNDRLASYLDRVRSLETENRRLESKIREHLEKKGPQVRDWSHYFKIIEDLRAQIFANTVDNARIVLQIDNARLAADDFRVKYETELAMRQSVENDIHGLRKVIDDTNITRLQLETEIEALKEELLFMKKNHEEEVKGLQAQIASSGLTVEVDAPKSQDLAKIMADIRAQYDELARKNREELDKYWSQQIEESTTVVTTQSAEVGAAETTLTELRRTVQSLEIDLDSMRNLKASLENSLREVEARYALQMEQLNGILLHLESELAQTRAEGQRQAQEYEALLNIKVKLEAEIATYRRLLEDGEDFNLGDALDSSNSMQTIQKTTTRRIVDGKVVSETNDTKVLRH
Described as above.

No constants are given. Whether binding was seen depends on the method and setting. Binding seen in cells or lysates may run through a third protein. Some results given as binding are weak or reduced against the parent protein; the word gives no strength.

On to “human p62 isoform-2 (p62/Sequestosome-1, SQSTM1) (from UniProt Q13501-2 1-356)”, for which the binding result in the assay with human Keratin 8 (human) and with human Keratin 18 (human) was “binds” in each case.
